Data as given in PubChem BioAssay AID1259405 (NCATS, 2018).
Here is a random part of about 50,000 reagents. In the full data, about 4,000 (8%) are marked active. 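Mouse siRNA library applied to hamster cells; one well for each siRNA.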 Reagents against one gene are numbered here.

Purpose: 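Knock-downs that lift recombinant protein yield in hamster ovary cells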 (primary screen)
Cells: Chinese hamster CHO-K1 ovary cells with stable secreted eGFP expression
Reagent: single siRNA against mouse genes, 0.8 pmol siRNA per well (2 µl of 400 nM stock)
Duration: 3 days
Read-out: 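Percent of the per-plate non-targeting control median for intracellular GFP per well by laser scanning cytometry and for cell viability by ATP luminescence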
Direction: GFP, % of control: higher = more GFP per well, higher productivity; viability (ATP), % of control: higher = more viable cells (more ATP)
Rule for the call: 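a knock-down is called active if GFP reaches 120% or more of non-targeting control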

Crygd #1 | GFP, % of control = 67.5; viability (ATP), % of control = 67.4; call = inactive
Crygd #2 | GFP, % of control = 29.7; viability (ATP), % of control = 58.3; call = inactive
Crygd #3 | GFP, % of control = 92.9; viability (ATP), % of control = 131; call = inactive
Ddx4 #1 | GFP, % of control = 78.8; viability (ATP), % of control = 45.1; call = inactive
Ddx4 #2 | GFP, % of control = 59; viability (ATP), % of control = 58.8; call = inactive
Ddx4 #3 | GFP, % of control = 112; viability (ATP), % of control = 144; call = inactive
Vwa8 #1 | GFP, % of control = 127; viability (ATP), % of control = 76.3; call = active
Vwa8 #2 | GFP, % of control = 83.5; viability (ATP), % of control = 55.1; call = inactive
Vwa8 #3 | GFP, % of control = 93.5; viability (ATP), % of control = 89.6; call = inactive
Adamts20 #1 | GFP, % of control = 68.5; viability (ATP), % of control = 89.7; call = inactive
Adamts20 #2 | GFP, % of control = 50.4; viability (ATP), % of control = 70.9; call = inactive
Adamts20 #3 | GFP, % of control = 63.1; viability (ATP), % of control = 55.7; call = inactive
Phactr3 #1 | GFP, % of control = 103; viability (ATP), % of control = 47.4; call = inactive
Phactr3 #2 | GFP, % of control = 111; viability (ATP), % of control = 96.7; call = inactive
Phactr3 #3 | GFP, % of control = 82.6; viability (ATP), % of control = 77.7; call = inactive
Alyref #1 | GFP, % of control = 85.3; viability (ATP), % of control = 99.7; call = inactive
Alyref #2 | GFP, % of control = 62.8; viability (ATP), % of control = 77.1; call = inactive

3 consecutive reagents from above, for reference:
Phactr3 #2 | GFP, % of control = 111; viability (ATP), % of control = 96.7; call = inactive
Phactr3 #3 | GFP, % of control = 82.6; viability (ATP), % of control = 77.7; call = inactive
Alyref #1 | GFP, % of control = 85.3; viability (ATP), % of control = 99.7; call = inactive
